This assay concerns the target GST-LRR (PC1 leucine-rich repeat fusion protein) (human) (UniProt P98161). As to the kind of experiment: pull-down; mixtures of purified GFP-Wnt9B with GST-LRR or GST alone, pulled down using GST-sepharose beads; probed with anti-GFP or anti-GST antibodies; both purified.

Protein sequences, listed by entry. Tags and fused reporters are not part of them. Lines headed by an entry give the natural chain unless they say otherwise; changes in a name come on top.
UniProt P98161: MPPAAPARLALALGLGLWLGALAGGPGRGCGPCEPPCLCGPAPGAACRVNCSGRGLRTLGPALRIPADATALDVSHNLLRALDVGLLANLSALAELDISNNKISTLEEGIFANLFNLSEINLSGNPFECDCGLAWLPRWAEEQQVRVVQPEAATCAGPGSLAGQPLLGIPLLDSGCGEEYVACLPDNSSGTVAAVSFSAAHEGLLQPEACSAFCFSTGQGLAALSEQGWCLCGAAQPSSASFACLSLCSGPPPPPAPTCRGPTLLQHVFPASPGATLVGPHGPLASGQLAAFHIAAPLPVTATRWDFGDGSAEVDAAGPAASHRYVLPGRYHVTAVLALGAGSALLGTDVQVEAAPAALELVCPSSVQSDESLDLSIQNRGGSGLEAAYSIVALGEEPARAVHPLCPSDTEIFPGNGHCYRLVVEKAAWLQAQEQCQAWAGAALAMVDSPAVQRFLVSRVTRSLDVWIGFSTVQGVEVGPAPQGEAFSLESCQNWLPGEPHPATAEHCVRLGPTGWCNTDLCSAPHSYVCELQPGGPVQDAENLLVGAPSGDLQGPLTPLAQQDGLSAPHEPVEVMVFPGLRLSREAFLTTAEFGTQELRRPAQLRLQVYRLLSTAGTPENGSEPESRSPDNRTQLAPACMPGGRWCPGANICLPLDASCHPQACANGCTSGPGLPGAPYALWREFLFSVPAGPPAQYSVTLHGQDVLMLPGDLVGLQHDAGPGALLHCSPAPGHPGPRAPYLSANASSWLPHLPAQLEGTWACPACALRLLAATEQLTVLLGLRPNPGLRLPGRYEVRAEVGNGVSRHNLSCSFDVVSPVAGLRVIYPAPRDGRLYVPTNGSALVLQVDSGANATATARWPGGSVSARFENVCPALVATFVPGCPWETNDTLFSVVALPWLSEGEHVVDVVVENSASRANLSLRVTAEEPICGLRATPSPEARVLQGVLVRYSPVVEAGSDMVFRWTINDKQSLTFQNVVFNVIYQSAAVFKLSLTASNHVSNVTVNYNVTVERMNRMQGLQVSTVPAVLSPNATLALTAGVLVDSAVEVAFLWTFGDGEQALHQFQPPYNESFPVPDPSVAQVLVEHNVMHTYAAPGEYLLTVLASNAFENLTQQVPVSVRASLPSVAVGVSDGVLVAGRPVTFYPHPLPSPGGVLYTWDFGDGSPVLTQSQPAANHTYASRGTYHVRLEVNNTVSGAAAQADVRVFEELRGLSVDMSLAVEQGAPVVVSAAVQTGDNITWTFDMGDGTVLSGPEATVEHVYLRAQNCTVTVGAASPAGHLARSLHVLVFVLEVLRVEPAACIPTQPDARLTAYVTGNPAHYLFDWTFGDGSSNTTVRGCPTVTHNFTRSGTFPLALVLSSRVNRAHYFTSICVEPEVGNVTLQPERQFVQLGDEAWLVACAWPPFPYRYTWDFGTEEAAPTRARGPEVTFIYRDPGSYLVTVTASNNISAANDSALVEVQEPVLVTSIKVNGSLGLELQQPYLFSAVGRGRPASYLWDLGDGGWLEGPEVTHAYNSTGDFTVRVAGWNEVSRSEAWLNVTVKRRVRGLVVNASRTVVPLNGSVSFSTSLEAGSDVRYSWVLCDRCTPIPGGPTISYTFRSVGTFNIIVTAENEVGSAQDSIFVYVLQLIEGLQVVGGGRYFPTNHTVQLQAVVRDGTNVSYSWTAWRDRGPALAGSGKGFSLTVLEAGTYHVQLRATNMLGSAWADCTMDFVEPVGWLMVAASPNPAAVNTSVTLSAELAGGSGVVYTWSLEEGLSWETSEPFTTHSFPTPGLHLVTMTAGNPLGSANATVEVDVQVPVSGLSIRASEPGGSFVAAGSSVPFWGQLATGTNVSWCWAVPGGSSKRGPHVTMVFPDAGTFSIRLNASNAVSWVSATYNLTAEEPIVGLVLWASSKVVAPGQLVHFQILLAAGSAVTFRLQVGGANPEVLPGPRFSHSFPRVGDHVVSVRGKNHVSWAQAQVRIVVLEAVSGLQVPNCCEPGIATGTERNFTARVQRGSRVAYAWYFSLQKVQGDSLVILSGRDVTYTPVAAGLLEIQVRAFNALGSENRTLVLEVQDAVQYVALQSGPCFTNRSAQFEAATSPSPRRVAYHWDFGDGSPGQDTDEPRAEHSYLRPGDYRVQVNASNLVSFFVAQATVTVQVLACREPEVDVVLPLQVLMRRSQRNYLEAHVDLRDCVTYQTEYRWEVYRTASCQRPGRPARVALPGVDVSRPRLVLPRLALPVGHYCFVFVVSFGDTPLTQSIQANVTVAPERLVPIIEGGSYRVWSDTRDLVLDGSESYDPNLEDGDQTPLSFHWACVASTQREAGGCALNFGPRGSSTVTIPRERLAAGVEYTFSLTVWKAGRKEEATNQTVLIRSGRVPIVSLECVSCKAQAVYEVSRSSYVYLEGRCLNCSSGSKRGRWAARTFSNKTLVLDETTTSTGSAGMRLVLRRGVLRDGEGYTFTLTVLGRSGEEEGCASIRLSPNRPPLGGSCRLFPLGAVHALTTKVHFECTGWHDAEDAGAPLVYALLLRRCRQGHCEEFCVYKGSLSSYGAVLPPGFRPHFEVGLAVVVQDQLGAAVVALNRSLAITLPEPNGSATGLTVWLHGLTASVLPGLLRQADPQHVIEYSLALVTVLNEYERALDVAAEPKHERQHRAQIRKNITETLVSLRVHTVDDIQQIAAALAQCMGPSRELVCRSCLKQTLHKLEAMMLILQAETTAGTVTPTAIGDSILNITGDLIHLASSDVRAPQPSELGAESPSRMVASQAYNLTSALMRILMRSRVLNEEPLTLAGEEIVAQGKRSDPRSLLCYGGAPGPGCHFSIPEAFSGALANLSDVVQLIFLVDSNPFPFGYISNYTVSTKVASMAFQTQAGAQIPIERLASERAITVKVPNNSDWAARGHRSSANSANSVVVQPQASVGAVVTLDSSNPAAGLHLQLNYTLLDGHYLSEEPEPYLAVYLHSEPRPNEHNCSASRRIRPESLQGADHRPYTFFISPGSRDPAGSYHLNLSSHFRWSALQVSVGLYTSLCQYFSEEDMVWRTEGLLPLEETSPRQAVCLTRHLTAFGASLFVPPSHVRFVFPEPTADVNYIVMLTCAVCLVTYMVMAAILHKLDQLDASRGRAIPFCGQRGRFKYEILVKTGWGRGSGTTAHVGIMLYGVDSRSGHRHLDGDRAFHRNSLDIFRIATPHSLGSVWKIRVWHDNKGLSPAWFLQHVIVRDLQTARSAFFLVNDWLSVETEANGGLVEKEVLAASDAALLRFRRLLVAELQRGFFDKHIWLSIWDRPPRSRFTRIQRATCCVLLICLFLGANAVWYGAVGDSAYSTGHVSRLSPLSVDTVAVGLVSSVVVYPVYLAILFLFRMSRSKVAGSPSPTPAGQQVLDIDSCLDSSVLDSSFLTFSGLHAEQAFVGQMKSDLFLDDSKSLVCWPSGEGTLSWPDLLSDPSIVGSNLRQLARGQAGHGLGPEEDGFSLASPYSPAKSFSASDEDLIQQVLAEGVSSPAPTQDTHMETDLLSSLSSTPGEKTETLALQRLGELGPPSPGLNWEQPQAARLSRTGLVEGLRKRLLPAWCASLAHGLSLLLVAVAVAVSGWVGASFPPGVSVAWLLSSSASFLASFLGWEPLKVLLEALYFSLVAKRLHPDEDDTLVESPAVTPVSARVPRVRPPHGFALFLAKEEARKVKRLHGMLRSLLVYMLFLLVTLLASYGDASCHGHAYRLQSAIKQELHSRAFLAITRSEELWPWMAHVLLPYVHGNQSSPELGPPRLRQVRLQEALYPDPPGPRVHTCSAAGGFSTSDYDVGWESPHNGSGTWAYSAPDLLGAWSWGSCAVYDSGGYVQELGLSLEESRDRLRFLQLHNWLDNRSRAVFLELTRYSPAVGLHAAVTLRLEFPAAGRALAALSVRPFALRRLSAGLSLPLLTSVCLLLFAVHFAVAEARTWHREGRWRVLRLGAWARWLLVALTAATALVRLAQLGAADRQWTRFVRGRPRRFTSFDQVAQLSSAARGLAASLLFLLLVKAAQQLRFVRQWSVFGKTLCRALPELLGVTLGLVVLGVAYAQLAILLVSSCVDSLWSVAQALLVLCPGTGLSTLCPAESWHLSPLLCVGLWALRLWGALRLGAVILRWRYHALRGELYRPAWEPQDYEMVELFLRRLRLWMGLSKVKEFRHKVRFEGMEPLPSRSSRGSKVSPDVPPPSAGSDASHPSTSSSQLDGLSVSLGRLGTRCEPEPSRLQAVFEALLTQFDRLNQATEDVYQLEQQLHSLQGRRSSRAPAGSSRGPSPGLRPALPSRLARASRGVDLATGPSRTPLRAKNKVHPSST

The values below come from PMC12513491.

Results are given in words; binding and its absence hold for the method and conditions named. Binding can be weak; no strength is given. Sequences can lack the tags named with a protein.

B1: purified GFP-Wnt9B (ligand, UniProt O14905 23-357)
chain: SYFGLTGREVLTPFPGLGTAAAPAQGGAHLKQCDLLKLSRRQKQLCRREPGLAETLRDAAHLGLLECQFQFRHERWNCSLEGRMGLLKRGFKETAFLYAVSSAALTHTLARACSAGRMERCTCDDSPGLESRQAWQWGVCGDNLKYSTKFLSNFLGSKRGNKDLRARADAHNTHVGIKAVKSGLRTTCKCHGVSGSCAVRTCWKQLSPFRETGQVLKLRYDSAVKVSSATNEALGRLELWAPARQGSLTKGLAPRSGDLVYMEDSPSFCRPSKYSPGTAGRVCSREASCSSLCCGRGYDTQSRLVAFSCHCQVQWCCYVECQQCVQEELVYTCKH
With B1, the binding result is reported as “binds”.
